Data as given in patent US10442791B2, “DNA-PK inhibitors” (Vertex Pharmaceuticals Incorporated, priority 2012, dated 2019).
Some entries share one result that the patent states for a list of compounds.

The chains behind the UniProt entries cited, without tags or fusion partners.
UniProt P78527, whole entry: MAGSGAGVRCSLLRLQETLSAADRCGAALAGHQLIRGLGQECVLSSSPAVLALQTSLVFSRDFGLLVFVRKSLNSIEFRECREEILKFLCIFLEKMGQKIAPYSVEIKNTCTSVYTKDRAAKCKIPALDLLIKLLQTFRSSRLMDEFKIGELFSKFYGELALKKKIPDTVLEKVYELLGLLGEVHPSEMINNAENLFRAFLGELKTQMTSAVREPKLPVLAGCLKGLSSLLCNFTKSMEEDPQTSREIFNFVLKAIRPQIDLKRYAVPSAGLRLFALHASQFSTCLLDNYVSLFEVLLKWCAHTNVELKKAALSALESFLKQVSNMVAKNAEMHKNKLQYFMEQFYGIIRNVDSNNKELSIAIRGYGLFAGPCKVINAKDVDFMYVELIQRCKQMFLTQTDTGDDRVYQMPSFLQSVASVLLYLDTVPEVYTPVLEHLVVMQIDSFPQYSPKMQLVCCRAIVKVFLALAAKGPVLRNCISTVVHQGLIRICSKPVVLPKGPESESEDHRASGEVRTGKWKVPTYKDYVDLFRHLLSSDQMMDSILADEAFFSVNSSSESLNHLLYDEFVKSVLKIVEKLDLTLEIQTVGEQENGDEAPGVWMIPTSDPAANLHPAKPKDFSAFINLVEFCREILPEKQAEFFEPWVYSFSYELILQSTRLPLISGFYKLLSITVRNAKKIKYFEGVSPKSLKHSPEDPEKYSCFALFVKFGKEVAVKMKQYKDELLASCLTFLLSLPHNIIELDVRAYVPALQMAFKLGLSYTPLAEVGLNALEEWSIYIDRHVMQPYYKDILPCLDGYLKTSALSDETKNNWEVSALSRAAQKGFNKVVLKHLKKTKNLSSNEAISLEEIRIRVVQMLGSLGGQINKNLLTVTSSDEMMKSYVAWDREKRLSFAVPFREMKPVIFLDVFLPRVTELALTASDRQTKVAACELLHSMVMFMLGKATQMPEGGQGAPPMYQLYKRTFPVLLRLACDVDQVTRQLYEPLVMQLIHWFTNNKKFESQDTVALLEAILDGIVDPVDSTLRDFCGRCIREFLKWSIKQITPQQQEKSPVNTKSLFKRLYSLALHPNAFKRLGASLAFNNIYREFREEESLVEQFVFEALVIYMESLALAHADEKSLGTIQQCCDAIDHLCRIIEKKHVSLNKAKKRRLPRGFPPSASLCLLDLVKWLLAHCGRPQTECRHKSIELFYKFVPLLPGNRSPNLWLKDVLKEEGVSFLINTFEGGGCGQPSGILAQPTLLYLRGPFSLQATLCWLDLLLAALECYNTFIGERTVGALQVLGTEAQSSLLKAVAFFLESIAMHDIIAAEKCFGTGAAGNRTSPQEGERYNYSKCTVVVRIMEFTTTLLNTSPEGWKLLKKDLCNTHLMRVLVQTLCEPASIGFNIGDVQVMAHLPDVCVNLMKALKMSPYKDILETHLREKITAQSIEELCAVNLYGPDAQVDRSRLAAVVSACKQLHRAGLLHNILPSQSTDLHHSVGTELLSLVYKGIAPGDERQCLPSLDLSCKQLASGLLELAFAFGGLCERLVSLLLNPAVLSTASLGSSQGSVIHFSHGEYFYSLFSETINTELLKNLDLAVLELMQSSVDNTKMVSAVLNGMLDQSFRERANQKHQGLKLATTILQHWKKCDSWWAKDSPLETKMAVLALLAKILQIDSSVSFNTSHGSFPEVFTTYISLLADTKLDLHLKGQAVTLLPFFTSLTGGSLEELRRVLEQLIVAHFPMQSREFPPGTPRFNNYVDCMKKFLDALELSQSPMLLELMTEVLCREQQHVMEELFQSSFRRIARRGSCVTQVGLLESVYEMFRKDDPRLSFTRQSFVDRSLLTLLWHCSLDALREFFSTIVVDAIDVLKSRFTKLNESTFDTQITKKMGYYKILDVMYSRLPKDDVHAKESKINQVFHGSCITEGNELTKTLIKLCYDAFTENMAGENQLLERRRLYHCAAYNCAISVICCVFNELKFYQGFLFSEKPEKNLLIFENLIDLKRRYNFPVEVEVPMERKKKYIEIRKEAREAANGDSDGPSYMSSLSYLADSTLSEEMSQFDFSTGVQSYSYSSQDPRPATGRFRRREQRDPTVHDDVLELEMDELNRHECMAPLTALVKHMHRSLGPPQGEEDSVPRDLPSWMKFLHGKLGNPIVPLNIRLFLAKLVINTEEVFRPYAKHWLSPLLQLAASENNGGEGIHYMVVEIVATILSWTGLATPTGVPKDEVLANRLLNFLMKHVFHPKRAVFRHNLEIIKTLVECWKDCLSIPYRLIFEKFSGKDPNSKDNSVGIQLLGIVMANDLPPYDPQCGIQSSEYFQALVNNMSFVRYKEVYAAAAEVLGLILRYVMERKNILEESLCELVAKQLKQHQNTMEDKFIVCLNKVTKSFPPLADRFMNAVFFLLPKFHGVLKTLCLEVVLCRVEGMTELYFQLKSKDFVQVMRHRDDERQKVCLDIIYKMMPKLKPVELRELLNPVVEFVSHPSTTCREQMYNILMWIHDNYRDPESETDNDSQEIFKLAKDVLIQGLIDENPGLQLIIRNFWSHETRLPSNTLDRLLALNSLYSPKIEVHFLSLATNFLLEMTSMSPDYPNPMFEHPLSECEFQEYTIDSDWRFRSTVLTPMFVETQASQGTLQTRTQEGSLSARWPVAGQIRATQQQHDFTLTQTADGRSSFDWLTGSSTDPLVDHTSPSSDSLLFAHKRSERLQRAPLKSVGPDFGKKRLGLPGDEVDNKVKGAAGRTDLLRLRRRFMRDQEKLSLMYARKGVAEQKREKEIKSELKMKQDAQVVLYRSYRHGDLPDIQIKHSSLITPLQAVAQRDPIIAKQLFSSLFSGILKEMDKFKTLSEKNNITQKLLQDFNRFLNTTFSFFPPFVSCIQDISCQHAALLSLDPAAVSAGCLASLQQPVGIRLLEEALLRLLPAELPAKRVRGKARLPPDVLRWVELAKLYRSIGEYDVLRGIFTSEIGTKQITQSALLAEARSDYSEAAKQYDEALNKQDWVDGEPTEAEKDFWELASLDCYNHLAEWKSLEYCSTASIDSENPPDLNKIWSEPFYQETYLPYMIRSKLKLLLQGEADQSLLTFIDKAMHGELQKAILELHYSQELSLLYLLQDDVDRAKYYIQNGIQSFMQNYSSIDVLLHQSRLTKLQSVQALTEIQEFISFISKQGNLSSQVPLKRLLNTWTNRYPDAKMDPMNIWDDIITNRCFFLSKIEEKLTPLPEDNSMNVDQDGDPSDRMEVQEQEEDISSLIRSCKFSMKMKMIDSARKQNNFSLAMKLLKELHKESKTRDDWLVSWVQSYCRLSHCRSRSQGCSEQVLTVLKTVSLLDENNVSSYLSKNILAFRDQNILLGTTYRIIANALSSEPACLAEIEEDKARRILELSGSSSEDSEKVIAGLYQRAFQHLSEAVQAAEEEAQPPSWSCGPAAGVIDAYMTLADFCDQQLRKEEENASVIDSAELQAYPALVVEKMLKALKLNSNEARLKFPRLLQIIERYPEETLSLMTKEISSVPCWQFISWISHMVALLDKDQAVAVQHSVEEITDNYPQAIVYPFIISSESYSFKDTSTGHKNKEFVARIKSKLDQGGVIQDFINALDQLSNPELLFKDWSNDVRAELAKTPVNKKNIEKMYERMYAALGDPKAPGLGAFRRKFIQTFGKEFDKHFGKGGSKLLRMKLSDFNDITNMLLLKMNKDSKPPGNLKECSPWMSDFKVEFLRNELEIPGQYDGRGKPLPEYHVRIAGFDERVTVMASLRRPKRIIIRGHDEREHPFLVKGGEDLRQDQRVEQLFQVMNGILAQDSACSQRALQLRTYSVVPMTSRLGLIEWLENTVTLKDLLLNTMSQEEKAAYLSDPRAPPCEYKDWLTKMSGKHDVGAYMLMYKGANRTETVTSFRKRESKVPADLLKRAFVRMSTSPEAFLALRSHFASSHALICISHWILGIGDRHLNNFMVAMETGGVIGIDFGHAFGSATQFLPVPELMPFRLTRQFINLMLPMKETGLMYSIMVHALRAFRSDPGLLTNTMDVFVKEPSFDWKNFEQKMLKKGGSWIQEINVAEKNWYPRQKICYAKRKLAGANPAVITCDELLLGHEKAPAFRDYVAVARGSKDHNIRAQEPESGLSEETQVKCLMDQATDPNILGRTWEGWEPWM

These compounds were tested against DNA-PK (Homo sapiens, UniProt P78527) (assay: DNA-PK inhibition assay (radiometric 33P-ATP kinase assay)). Settings: 100 μM ATP; competitive tight-binding fit.
Type: biochemical

Ki, ≤ 300 nM:
C[C@H](CNc1cc(-c2ccc(N3CCOCC3)nc2)ncn1)c1ccnc2c1OCCO2 [Compound 522]
CCOc1ccc(-c2cc(NCC(C)c3ccc(C(=O)NC)cc3OC)ncn2)cn1 (stereo not shown) [Compound 322]
CC(CNc1cc(-c2cnc3c(cnn3CCO)c2)ncn1)c1cccc2scnc12 (stereo not shown) [Compound 402]
CNC(=O)c1c(F)cnc2c([C@H](C)CNc3cc(-c4ccc(CC5CCN(C)CC5)nc4)ncn3)cccc12 [Compound 991]
CNC(=O)c1ccc([C@H](C)CNc2cc(-c3ccc(C)nc3)ncn2)c(OC)c1 [Compound 175]
C[C@H](CNc1cc(-c2ccc(NC3CC3)nc2)ncn1)c1ccnc2c1OCCO2 [Compound 465]
CC(CNc1cc(-c2cnc3c(cnn3CCO)c2)ncn1)c1ccnc2ccoc12 (stereo not shown) [Compound 429]
CNC(=O)c1ccnc2c([C@H](C)CNc3cc(-c4cnc(N(C)C5CCN(C(C)=O)CC5)nc4)ncn3)cccc12 [Compound 1081]
[2H]c1nc(C)nc([2H])c1-c1cc(NC[C@@H](C)c2cccc3c(C(=O)NC([2H])([2H])[2H])ccnc23)ncn1 [Compound 1024]
Cc1ccc(-c2cc(NC[C@@H](C)c3cccc4c3OCC4)ncn2)cn1 [Compound 134]
CNC(=O)c1ccnc2c([C@H](C)CNc3cc(-c4cnc(C)nc4)ncn3)cc(F)cc12 [Compound 637]
CNC(=O)c1ccc([C@H](C)CNc2cc(-c3ccc(NC(CO)CO)nc3)ncn2)c(OC)c1 [Compound 353]
Cc1ccc(-c2cc(NCCc3ccccc3OC3CC3)ncn2)cn1 [Compound 86]
CNC(=O)c1ccc([C@H](C)CNc2cc(-c3cnc4c(c3)OCCN4C)ncn2)c(OC)c1 [Compound 490]
CNC(=O)c1ccnc2c([C@H](C)CNc3cc(-c4cnc(C)s4)ncn3)cccc12 [Compound 778]
C#CCNc1ccc(-c2cc(NC[C@@H](C)c3ccc(C(=O)NC)cc3OC)ncn2)cn1 [Compound 385]
Cc1ccc(-c2cc(NC[C@@H](C)c3cccc4c(C(=O)NC5CC5)ccnc34)ncn2)cn1 [Compound 548]
CNC(=O)c1ccnc2c([C@H](C)CNc3cc(-c4cnc(OC5CCN(C)CC5)nc4)ncn3)cccc12 [Compound 1049]
CNC(=O)c1ccnc2c([C@H](C)CNc3cc(-c4ccc(C5(O)COC5)nc4)ncn3)ccc(F)c12 [Compound 1069]
CNC(=O)c1ccnc2c([C@H](C)CNc3cc(-c4ccc(N(C)C5CCN(C(C)=O)CC5)nc4)ncn3)cccc12 [Compound 1088]
COCCn1ncc2cc(-c3cc(NCC(C)c4ccccc4OC4COC4)ncn3)cnc21 (stereo not shown) [Compound 215]
COc1ccccc1CCNc1ncnc(-c2ccc(C)nc2)n1 [Compound 3]
CNC(=O)c1ccc(C(C)CNc2cc(-c3ccc(CCOC)cc3)ncn2)c(OC)c1 (stereo not shown) [Compound 340]
CNC(=O)c1ccnc2c([C@H](C)CNc3cc(-c4cnc(C(C)(C)C)nc4)ncn3)cccc12 [Compound 791]
CNC(=O)c1ccnc2c([C@H](C)CNc3cc(-c4cncc(C(C)(C)O)c4)ncn3)cccc12 [Compound 879]
CONC(=O)c1ccc(C(C)CNc2cc(-c3ccc(C)nc3)ncn2)c(OC)c1 (stereo not shown) [Compound 157]
CCOc1ncc(-c2cc(NC[C@@H](C)c3ccc(F)c4c(C(=O)NC)ccnc34)ncn2)cn1 [Compound 652]
CNC(=O)c1ccc(-c2cc(NC[C@@H](C)c3cccc4c(C(=O)NC)ccnc34)ncn2)cc1 [Compound 754]
CNC(=O)c1ccnc2c([C@H](C)CNc3cc(-c4ccnc(C)c4)ncn3)cccc12 [Compound 771]
COc1ccc(C(F)(F)F)cc1C(C)CNc1cc(-c2ccc(N3CCN(C)CC3)nc2)ncn1 (stereo not shown) [Compound 59]
CNC(=O)c1ccnc2c([C@H](C)CNc3cc(-c4ccc(N5CCN(CC(F)F)CC5)nc4)ncn3)cccc12 [Compound 756]
Cc1ccc(-c2cc(NCC(C)c3cc(F)c(F)cc3OC3CCC3)ncn2)cn1 (stereo not shown) [Compound 381]
CNC(=O)c1ccnc2c([C@H](C)CNc3cc(-c4cnc(NCC(F)(F)F)nc4)ncn3)cccc12 [Compound 1066]
CNC(=O)c1ccnc2c([C@H](C)CNc3cc(-c4ccc(NCC(=O)N(C)C)nc4)ncn3)cccc12 [Compound 633]
COc1cc(F)c(F)cc1C(C)CNc1cc(-c2ccc(C)nc2)ncn1 (stereo not shown) [Compound 117]
COCCn1ncc2cc(-c3cc(NCC(C)c4cscc4OC)ncn3)cnc21 (stereo not shown) [Compound 227]
CC(CNc1cc(-c2cnc3c(cnn3CCO)c2)ncn1)c1ccnc2cccnc12 (stereo not shown) [Compound 400]
CNC(=O)c1ncnc2c([C@H](C)CNc3cc(-c4ccc(C(=O)NCCC#N)nc4)ncn3)cccc12 [Compound 1016]
CNC(=O)c1ccc([C@H](C)CNc2cc(-c3ccc(C(=O)NC4CC4)cc3)ncn2)c(OC)c1 [Compound 318]
CNC(=O)c1ccnc2c([C@H](C)CNc3cc(-c4ccc(NC5CCN(C(C)=O)CC5)nc4)ncn3)cccc12 [Compound 1064]
Cc1ccc(-c2cc(NCC(C)c3ccccc3OCC(O)CO)ncn2)cn1 (stereo not shown) [Compound 219]
Cc1ccc(-c2cc(NCC(C)c3ccccc3OCCO)ncn2)cn1 (stereo not shown) [Compound 251]
Cc1ccc(-c2cc(NCC(C)c3ccccc3OC3COC3)ncn2)cn1 (stereo not shown) [Compound 101]
CN1CCN(c2ccc(-c3cc(NCCc4ccccc4OC(F)(F)F)ncn3)cn2)CC1 [Compound 29]
CNC(=O)c1c(F)cnc2c([C@H](C)CNc3cc(-c4csc(OC)n4)ncn3)cccc12 [Compound 787]
Cc1ncc(-c2cc(NC[C@@H](C)c3cccc4c(=O)[nH]cnc34)ncn2)cn1 [Compound 599]
CNC(=O)c1ccnc2c([C@H](C)CNc3cc(-c4ccc(S(C)(=O)=O)nc4)ncn3)cccc12 [Compound 587]
CNC(=O)c1ccnc2c([C@H](C)CNc3cc(-c4cccc(C(C)O)c4)ncn3)cccc12 (stereo partly shown) [Compound 617]
CNC(=O)c1c(F)cnc2c([C@H](C)CNc3cc(-c4ccc(C)nc4)ncn3)ccc(F)c12 [Compound 646]
Cc1ccc(-c2cc(NCCc3cccc4ccoc34)ncn2)cn1 [Compound 106]
CN1CCN(c2ccc(-c3cc(NCCc4cccc5c4OCC5)ncn3)cn2)CC1 [Compound 30]
CNC(=O)c1ccnc2c([C@H](C)CNc3cc(-c4cnc(CC5CCN(CC(F)F)CC5)nc4)ncn3)cccc12 [Compound 1045]
CNC(=O)c1ccnc2c([C@H](C)CNc3cc(-c4ccc(NCC5CC5)nc4)ncn3)cccc12 [Compound 644]
CNC(=O)c1ccc([C@H](C)CNc2cc(-c3ccc4c(c3)CNC4=O)ncn2)c(OC)c1 [Compound 312]
CC(CNc1cc(-c2ccc(N3CCN(C)CC3)nc2)ncn1)c1ccc(F)cc1OC1CC1 (stereo not shown) [Compound 271]
CNC(=O)c1ccc(C(C)CNc2cc(-c3cnc4c(cnn4C)c3)ncn2)c(OC)c1 (stereo not shown) [Compound 188]
CNC(=O)c1ccnc2c([C@H](C)CNc3cc(-c4cnc(OC)nc4)ncn3)cccc12 [Compound 606]
C[C@H](CNc1cc(-c2ccc3ccncc3c2)ncn1)c1ccnc2c1OCCO2 [Compound 541]
COc1ccccc1CCNc1cc(-c2ccc(NC(C)=O)cc2)ncn1 [Compound 10]
CNc1ncc(-c2cc(NCC(C)c3cc(F)c(F)cc3OC3CCC3)ncn2)cn1 (stereo not shown) [Compound 383]
CNC(=O)c1ccnc2c([C@H](C)CNc3cc(-c4ccc(CC5CCN(CC(F)F)CC5)nc4)ncn3)ccc(F)c12 [Compound 1020]
CNC(=O)c1ccnc2c([C@H](C)CNc3cc(-c4ccc(OC)nc4)ncn3)ccc(F)c12 [Compound 908]
COc1ncc(-c2cc(NC[C@@H](C)c3ccnc4c3OCCO4)ncn2)cc1-c1nnc[nH]1 [Compound 529]
COc1ccccc1CCNc1cc(-c2ccc(C(=O)O)s2)ncn1 [Compound 50]
CNC(=O)c1c(F)cnc2c([C@H](C)CNc3cc(-c4ccc(OC)c(OC)n4)ncn3)cccc12 [Compound 694]
CNCCNc1ccc(-c2cc(NC[C@@H](C)c3ccc(C(=O)NC)cc3OC)ncn2)cn1 [Compound 469]
CNC(=O)c1c(F)cnc2c([C@H](C)CNc3cc(-c4cnc(NC5CC5)nc4)ncn3)cccc12 [Compound 1032]
CNC(=O)c1ccnc2c([C@H](C)CNc3cc(-c4ccc(C(O)C(C)C)nc4)ncn3)cccc12 (stereo partly shown) [Compound 925]
CNC(=O)c1ccnc2c([C@H](C)CNc3cc(-c4cnn(CC(C)C)c4)ncn3)cccc12 [Compound 611]
CNC(=O)c1ccnc2c([C@H](C)CNc3cc(-c4cnc(N(C)C5CCN(CC(F)(F)F)CC5)nc4)ncn3)cccc12 [Compound 1061]
COc1ncc(-c2cc(NC[C@@H](C)c3ccnc4c3OCCO4)ncn2)cc1CO [Compound 550]
CNC(=O)c1ccnc2c([C@H](C)CNc3cc(-c4ccc(NCCC(C)O)nc4)ncn3)cccc12 (stereo partly shown) [Compound 709]
COc1ccc(CCNc2cc(-c3ccc(C)nc3)ncn2)c(OC)c1 [Compound 26]

Same assay, conditions: 100 μM ATP; competitive tight-binding fit; listed as compound 708

Ki, ≤ 300 nM:
CCN1CCCC1CNc1ccc(-c2cc(NC[C@@H](C)c3cccc4c(C(=O)NC)ccnc34)ncn2)cn1 (single isomer, unassigned) [Compound 708]

Same assay, conditions: 100 μM ATP; competitive tight-binding fit; listed as compound 987

Ki, ≤ 300 nM:
CNC(=O)c1c(F)cnc2c([C@H](C)CNc3cc(-c4cnc5c(c4)COC5(C)C)ncn3)cccc12 [Compound 987]

Same assay, conditions: 100 μM ATP; competitive tight-binding fit; listed as compound 1040

Ki, ≤ 300 nM:
CNC(=O)c1ccnc2c([C@H](C)CNc3cc(-c4ccnc(C(C)OC)c4)ncn3)cccc12 (single isomer, unassigned) [Compound 1040]
